Experimental data from PMC11124926.
Results are given in words; binding and its absence hold for the method and conditions named. A result given as binding can be weak or reduced; the word gives no strength. Sequences can lack the tags named with a protein. For part of these data: In cells and extracts the contact can be indirect. Each block holds one substance with its values, some of them ahead of it.

Tests used:
[1] = target: T1, CIPK31 in pGBT9 (DNA-binding domain fusion), yeast two-hybrid construct (rice) (UniProt Q6X4A2); assay: two-hybrid; Match Maker yeast two-hybrid system; CIPK31 in pGBT9 (BD), SLR1 and VOZ2 in pGAD424 (AD); co-transformed into yeast strain Y2HGold
T1 sequence: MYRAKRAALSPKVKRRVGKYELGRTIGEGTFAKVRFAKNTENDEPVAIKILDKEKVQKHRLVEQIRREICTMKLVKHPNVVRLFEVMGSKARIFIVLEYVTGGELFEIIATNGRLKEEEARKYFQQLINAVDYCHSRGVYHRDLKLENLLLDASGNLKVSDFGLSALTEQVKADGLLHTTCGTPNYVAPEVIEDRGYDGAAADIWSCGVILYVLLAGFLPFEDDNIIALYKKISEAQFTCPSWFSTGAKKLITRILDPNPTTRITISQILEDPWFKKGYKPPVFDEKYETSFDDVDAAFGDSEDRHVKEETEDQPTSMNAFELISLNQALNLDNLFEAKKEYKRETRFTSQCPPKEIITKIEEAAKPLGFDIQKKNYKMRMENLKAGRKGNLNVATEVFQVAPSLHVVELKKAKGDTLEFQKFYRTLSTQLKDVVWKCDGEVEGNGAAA

CIPK31-nYFP (rice) = target: T2, CIPK31-nYFP (rice) (UniProt Q6X4A2); assay: split reporter; BiFC in tobacco leaves; vectors pXNGW and pXCGW, Agrobacterium GV3101; YFP reconstruction imaged by confocal microscopy 36-48 h after transformation; H2B-RFP as nuclear marker
T2 sequence: T1 sequence

CIPK31-GFP (rice) = target: T3, CIPK31-GFP (rice) (UniProt Q6X4A2); assay: co-IP; CIPK31-GFP + VOZ2-Myc coexpressed in tobacco leaves; total protein immunoprecipitated with an anti-GFP antibody; blots with anti-GFP and anti-Myc
T3 sequence: T1 sequence

binding [1]: binds
Substance: VOZ2 in pGAD424 (activation domain fusion), yeast two-hybrid construct (rice)

binding (CIPK31-nYFP (rice)): binds
Substance: VOZ2-cCFP (rice)

binding (CIPK31-GFP (rice)): binds
Substance: VOZ2-Myc (rice)
